Source: the supplement of paper PMC10849652
The other results are listed elsewhere or left out.

Amino acid sequences for entries named in this document (tags omitted). A change or cut given only in a name is not applied to a line headed by its entry.
UniProt Q6P5X5: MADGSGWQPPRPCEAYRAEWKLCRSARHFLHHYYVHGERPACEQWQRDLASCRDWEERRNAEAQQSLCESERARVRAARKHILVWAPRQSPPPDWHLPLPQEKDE
UniProt O75808: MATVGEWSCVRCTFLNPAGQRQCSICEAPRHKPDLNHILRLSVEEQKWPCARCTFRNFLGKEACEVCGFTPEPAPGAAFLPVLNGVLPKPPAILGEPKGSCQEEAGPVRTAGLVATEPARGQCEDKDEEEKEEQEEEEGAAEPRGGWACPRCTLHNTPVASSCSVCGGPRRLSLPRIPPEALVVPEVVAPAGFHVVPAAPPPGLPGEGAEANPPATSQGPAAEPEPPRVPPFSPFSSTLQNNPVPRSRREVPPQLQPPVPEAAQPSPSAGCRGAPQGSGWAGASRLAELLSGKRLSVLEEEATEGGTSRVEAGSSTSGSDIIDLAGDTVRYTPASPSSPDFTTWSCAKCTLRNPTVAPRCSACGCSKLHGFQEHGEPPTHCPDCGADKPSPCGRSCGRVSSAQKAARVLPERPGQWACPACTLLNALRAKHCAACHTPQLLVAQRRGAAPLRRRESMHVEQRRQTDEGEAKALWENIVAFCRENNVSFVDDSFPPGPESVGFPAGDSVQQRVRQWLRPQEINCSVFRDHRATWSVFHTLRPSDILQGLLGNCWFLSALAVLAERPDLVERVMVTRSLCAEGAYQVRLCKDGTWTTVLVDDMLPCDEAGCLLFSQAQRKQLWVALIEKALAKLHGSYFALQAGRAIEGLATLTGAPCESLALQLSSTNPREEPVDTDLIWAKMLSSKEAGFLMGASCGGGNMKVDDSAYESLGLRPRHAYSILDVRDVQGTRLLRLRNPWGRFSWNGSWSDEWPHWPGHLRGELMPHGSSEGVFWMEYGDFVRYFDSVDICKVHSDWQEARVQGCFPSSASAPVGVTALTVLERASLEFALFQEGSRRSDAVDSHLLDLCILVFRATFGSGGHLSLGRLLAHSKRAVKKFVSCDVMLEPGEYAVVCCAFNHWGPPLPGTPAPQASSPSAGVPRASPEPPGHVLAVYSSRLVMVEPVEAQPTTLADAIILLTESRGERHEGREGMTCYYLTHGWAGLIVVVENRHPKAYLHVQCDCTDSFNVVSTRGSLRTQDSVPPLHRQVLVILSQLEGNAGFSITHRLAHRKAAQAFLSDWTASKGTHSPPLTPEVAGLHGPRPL
UniProt Q0VDD7: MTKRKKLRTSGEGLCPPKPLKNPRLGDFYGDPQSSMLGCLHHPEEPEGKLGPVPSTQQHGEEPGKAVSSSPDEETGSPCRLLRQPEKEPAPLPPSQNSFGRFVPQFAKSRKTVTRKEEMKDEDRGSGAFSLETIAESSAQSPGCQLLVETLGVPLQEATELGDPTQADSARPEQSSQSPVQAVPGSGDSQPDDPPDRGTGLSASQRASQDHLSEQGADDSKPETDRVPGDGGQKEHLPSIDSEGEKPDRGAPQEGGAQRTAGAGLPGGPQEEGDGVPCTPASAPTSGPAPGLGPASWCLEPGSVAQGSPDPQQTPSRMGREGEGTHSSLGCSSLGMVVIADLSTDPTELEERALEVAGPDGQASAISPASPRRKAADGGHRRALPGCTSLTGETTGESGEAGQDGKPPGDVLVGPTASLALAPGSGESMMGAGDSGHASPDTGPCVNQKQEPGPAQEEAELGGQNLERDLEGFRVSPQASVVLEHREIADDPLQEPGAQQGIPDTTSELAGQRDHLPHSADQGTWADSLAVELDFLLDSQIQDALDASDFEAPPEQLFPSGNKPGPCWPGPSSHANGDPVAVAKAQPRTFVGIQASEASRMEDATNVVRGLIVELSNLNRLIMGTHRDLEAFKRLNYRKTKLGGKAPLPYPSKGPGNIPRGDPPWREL
UniProt P07384: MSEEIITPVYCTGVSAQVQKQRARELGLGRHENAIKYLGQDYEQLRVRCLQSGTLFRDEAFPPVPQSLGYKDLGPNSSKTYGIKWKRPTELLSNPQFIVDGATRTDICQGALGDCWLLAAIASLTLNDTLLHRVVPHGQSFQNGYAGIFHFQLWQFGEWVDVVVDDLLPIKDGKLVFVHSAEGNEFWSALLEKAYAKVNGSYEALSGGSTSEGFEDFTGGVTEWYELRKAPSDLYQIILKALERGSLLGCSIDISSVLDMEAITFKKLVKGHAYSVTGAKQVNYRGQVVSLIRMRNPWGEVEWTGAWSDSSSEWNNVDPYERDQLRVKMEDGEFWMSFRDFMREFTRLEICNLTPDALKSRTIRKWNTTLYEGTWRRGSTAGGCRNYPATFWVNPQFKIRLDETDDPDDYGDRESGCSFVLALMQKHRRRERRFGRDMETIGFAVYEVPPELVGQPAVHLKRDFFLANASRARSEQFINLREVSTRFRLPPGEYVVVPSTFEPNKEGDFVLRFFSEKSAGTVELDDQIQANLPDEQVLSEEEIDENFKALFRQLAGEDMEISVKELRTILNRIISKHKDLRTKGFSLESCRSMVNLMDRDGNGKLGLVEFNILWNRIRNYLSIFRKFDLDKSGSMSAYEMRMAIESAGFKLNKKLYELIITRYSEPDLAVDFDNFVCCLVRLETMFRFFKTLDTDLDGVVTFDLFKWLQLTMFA
UniProt Q96HA4: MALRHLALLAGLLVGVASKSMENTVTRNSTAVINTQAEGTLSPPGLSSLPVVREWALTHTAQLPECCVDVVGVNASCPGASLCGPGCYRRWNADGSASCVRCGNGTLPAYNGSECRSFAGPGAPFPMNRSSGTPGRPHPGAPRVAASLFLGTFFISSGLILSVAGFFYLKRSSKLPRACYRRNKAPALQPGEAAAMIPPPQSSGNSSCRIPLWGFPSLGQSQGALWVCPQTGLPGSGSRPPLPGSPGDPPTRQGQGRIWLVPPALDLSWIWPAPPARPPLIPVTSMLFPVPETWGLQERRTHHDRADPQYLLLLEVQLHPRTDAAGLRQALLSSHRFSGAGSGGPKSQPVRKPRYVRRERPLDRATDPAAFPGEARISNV
UniProt Q08AD1: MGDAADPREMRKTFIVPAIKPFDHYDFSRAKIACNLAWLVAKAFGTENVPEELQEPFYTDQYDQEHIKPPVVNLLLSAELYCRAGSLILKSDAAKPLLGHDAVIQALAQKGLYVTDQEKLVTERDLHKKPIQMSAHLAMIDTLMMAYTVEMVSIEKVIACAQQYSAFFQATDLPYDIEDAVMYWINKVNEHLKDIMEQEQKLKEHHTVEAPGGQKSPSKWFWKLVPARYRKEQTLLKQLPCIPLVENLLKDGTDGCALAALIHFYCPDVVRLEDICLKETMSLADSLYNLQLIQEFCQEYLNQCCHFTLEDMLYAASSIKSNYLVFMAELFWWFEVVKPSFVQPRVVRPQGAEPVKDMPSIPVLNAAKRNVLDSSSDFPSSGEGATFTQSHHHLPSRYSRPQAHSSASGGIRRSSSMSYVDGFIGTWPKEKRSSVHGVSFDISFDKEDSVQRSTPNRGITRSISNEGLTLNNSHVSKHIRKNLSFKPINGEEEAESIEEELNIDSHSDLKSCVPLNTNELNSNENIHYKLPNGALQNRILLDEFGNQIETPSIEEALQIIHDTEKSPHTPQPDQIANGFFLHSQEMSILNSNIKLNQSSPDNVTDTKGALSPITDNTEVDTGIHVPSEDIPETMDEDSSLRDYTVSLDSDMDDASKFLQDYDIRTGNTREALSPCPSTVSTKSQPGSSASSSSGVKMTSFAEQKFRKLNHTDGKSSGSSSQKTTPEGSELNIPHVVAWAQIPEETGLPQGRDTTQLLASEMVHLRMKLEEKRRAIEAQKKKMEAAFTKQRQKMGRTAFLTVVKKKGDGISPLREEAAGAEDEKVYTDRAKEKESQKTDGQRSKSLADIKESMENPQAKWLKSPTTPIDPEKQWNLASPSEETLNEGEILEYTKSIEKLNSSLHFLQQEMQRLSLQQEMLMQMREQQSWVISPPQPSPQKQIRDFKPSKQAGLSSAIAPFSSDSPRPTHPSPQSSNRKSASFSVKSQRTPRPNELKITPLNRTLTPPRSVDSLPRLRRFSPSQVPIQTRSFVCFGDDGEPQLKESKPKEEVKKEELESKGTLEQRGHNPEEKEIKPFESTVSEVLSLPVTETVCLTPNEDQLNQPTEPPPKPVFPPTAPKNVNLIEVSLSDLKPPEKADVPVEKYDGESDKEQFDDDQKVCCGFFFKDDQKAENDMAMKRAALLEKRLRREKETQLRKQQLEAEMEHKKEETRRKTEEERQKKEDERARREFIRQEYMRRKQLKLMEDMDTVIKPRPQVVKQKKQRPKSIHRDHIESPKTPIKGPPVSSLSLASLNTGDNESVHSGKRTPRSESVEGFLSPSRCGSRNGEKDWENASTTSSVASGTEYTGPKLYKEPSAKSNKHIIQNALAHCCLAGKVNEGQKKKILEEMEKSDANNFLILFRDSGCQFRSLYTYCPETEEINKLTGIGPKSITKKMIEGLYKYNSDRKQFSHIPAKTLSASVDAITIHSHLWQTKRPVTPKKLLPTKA
UniProt Q9GZU0: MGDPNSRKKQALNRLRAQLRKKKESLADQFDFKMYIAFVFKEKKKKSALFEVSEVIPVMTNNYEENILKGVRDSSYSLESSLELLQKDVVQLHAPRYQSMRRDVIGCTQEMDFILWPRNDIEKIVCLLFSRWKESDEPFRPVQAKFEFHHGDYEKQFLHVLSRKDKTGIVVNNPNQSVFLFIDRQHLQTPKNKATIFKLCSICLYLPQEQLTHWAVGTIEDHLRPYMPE
UniProt Q99622: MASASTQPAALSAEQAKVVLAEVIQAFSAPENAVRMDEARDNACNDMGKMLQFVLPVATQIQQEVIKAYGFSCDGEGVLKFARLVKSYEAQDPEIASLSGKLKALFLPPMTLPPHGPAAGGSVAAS
UniProt Q9HB71, whole entry, looked up: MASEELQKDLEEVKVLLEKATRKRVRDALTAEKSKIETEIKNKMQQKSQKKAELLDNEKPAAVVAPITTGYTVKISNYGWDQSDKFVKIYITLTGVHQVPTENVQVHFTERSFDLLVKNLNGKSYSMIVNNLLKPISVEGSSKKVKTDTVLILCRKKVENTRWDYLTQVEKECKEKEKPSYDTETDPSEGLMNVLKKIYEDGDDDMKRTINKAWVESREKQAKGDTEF

Assays:
Test in all cases: log2 fold change, soluble protein after heating vs DMSO (PISA); higher = thermal stabilisation; K562 lysate, 10 uM; active = over 0.2 and 3.5 SD of the protein, either way, in both replicates (recomputed)
nilotinib = compound: Cc1cn(-c2cc(NC(=O)c3ccc(C)c(Nc4nccc(-c5cccnc5)n4)c3)cc(C(F)(F)F)c2)cn1 [nilotinib]
Procedure, shortened: (§1)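 K562 pellets were dounce-homogenised in PBS pH 7.4 containing 1 mM MgCl2, and the crude extract, at 1 mg/mL protein, was exposed to 10 μM compound for 30 min. Aliquots were heated for 3 min across 48°C-58°C, pooled, brought to 0.5% NP-40 at 4°C and spun at 21,000xg for 90 min, with the supernatant taken as soluble protein. TMTpro 16plex LC-MS/MS with equalised channel sums quantified that protein. Values are log-two fold changes in thermal stability relative to solvent controls, taken from duplicates.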

[1] = compound: Cc1nc(Nc2n[nH]c3c2CN(C(=O)N[C@H](CN(C)C)c2ccccc2)C3(C)C)c2sccc2n1
Procedure, shortened: as §1

dasatinib = compound: Cc1nc(Nc2ncc(C(=O)Nc3c(C)cccc3Cl)s2)cc(N2CCN(CCO)CC2)n1 [dasatinib]
Procedure, shortened: as §1

[2] = compound: Cc1ncc(-c2ccnc(Nc3ccc(S(C)(=O)=O)cc3)n2)n1C(C)C
Procedure, shortened: as §1

[3] = compound: Cn1cc(-c2ccc3c(c2)CCN3C(=O)Cc2cccc(C(F)(F)F)c2)c2c(N)ncnc21
Procedure, shortened: as §1

tipifarnib = compound: Cn1cncc1[C@@](N)(c1ccc(Cl)cc1)c1ccc2c(c1)c(-c1cccc(Cl)c1)cc(=O)n2C [tipifarnib]
Procedure, shortened: as §1

[4] = compound: NC(=O)c1cnc(N[C@@H]2CCCC[C@@H]2N)nc1Nc1cccc(-n2nccn2)c1
Procedure, shortened: as §1

quisinostat = compound: Cn1cc(CNCC2CCN(c3ncc(C(=O)NO)cn3)CC2)c2ccccc21 [quisinostat]
Procedure, shortened: as §1

[5] = compound: NC(=O)Nc1cc(-c2cccc(F)c2)sc1C(=O)N[C@H]1CCCNC1
Procedure, shortened: as §1

[6] = compound: NC1(c2ccc(-c3nc4ccn5c(=O)[nH]nc5c4cc3-c3ccccc3)cc2)CCC1
Procedure, shortened: as §1

Measured: log2 fold change

C22orf39 (UniProt Q6P5X5)
inactive: nilotinib 0.092 | [1] 0.027 | dasatinib -0.154 | [2] -0.026 | [3] 0.018 | tipifarnib -0.074 | [4] 0.081

CAPN15 (UniProt O75808)
inactive: nilotinib 0.018 | [1] -0.045 | dasatinib -0.124 | [2] 0.014 | [3] 0.007 | quisinostat 0 | tipifarnib 0.04 | [5] 0.025 | [4] -0.08 | [6] 0.054

C19orf57 (UniProt Q0VDD7)
inactive: dasatinib -0.078 | [3] -0.012

CAPN1 (UniProt P07384)
inactive: nilotinib -0.005 | [1] 0.013 | dasatinib 0.027 | [2] 0.004 | [3] 0.02 | quisinostat -0.038 | tipifarnib -0.025 | [5] -0.021 | [4] -0.015 | [6] -0.015

C1orf159 isoform 4 (UniProt Q96HA4)
inactive: dasatinib 0.071 | [3] -0.12

CAMSAP2 (UniProt Q08AD1)
inactive: nilotinib 0.156 | [1] -0.023 | dasatinib -0.072 | [2] 0.059 | [3] -0.03 | quisinostat -0.138 | tipifarnib -0.374 | [5] 0.011 | [6] -0.148

C6orf62 (UniProt Q9GZU0)
inactive: dasatinib 0.085 | [3] 0.739 | quisinostat 0.161 | [5] 0.211

C12orf57 (UniProt Q99622)
inactive: nilotinib 0.209 | [1] 0.051 | dasatinib -0.234 | [2] -0.04 | [3] 0.102 | quisinostat -0.232 | tipifarnib 0.231 | [5] 0.118 | [6] -0.187

CAPNS1 (UniProt U3KPR7)
inactive: nilotinib -0.166 | [1] -0.416 | [2] 0.226 | tipifarnib 0.161 | [4] -0.214

CACYBP (UniProt Q9HB71)
inactive: nilotinib -0.016 | [1] -0.005 | dasatinib 0.031 | [2] -0.011 | [3] -0.013 | quisinostat 0.011 | tipifarnib 0.011 | [5] 0.006 | [4] -0.019 | [6] 0.017
